Data published in paper PMC6533518.
These are yes or no findings as the source states them, for the method shown. Binding seen in cells or lysates may run through a third protein. Some results given as binding are weak or reduced against the parent protein; the word gives no strength.

By UniProt entry, the sequences of proteins in these tests, tags left out. Residues count along the entry.
UniProt P30405, residues 30-207: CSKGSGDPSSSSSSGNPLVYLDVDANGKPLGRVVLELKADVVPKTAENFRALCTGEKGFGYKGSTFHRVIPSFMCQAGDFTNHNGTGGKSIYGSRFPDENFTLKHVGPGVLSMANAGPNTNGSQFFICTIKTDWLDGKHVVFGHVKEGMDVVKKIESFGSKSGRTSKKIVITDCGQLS
UniProt P10415: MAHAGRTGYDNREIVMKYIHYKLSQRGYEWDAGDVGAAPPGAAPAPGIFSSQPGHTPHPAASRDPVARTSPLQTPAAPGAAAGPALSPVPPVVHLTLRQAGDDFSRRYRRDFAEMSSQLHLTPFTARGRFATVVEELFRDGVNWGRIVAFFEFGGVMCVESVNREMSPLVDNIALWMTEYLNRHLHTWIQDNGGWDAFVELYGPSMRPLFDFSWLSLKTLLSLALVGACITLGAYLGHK

Molecular target: cyclophilin D (human (endogenous in HOK)) (UniProt P30405)
Assay: co-IP; mitochondrial extract of HOK cells; immunoprecipitation with anti-CypD antibody, protein A/G-agarose, overnight at 4°C; 20 mmol/L Tris-HCl pH 7.5, 150 mmol/L NaCl, 1.5% Nonidet P-40; Western blot for Bcl2

Bcl2 (from UniProt P10415 1-239)
binding: binds
